IC50 data for one molecule are collected here from ChEMBL document CHEMBL4715790, “An Unusual Binding Model of the Methyl 9-Anilinothiazolo[5,4-f] quinazoline-2-carbimidates (EHT 1610 and EHT 5372) Confers High Selectivity for Dual-Specificity Tyrosine Phosphorylation-Regulated Kinases” (J Med Chem, 2016).

Chains of the proteins cited; added tags and fusions are not shown.
UniProt Q9Y463, whole entry: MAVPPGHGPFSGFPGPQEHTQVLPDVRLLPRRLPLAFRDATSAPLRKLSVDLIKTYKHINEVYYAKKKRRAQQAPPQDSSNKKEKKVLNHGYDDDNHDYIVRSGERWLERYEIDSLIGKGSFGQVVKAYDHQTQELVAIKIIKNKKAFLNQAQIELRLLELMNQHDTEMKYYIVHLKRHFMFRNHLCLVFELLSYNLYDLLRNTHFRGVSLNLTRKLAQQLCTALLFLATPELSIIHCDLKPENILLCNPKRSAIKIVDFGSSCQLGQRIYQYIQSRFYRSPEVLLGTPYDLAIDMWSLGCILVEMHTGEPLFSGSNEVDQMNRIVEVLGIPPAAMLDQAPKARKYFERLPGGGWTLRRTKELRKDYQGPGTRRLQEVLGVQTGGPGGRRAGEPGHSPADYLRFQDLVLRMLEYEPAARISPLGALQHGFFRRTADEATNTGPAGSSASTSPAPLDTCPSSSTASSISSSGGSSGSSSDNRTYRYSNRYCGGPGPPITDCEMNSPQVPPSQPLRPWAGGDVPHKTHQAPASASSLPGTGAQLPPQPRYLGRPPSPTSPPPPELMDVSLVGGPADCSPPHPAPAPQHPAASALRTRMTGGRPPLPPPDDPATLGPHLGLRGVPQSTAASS

The assay has as its target Dual specificity tyrosine-phosphorylation-regulated kinase 1B (Homo sapiens, UniProt Q9Y463).

SMILES strings stand for the structures. pIC50: −log10 of the molar value.

For the molecule `COc1ccc2c(c1)[nH]c1c(C)nccc12` [HARMINE], the pIC50 was 7.24.

In general, pIC50 refers to the negative decadic logarithm of the IC50, by convention in mol/L. Low readings indicate a high IC50, high ones a low IC50.
